Publication PMC5344419, “The structure of FKBP38 in complex with the MEEVD tetratricopeptide binding-motif of Hsp90” (PLoS ONE, 2017)
Results are given in words; binding and its absence hold for the method and conditions named.

Sequences of proteins named here, by UniProt entry; tags and fusion partners are left off. Residues count along the entry.
UniProt P08238: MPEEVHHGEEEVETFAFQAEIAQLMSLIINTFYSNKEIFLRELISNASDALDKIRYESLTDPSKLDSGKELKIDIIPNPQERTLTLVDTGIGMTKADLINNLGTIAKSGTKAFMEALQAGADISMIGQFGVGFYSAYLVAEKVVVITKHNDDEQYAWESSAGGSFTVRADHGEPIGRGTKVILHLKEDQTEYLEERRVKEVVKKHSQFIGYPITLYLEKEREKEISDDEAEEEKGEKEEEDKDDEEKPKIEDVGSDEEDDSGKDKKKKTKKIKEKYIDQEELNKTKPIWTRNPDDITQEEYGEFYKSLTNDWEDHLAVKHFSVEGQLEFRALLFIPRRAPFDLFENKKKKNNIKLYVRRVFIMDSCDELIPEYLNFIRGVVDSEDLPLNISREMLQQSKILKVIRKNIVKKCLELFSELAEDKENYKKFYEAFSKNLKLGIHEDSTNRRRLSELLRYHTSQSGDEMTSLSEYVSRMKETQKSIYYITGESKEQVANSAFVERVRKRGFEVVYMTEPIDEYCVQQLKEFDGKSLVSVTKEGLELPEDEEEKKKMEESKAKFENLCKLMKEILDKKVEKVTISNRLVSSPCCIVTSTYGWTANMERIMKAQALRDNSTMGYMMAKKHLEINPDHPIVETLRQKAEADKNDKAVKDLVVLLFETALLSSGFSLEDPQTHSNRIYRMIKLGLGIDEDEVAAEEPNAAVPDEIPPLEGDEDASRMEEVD
UniProt Q14318, residues 92-207: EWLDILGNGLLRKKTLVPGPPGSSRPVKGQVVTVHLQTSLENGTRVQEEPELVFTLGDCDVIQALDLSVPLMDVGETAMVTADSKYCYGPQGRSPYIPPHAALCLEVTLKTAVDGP

Target: Full-length human Hsp90β (human) (UniProt P08238)
Assay: ITC; 700 to 800 μM FKBP construct injected into 50 μM Hsp90 or Hsp70 protein in the cell; ITC200; 20 mM Tris, 300 mM NaCl, 1 mM EDTA pH 7.5; both purified

FKBP38 immunophilin domain, amino acids 92-207 (FKBP^92-207) (from UniProt Q14318 92-207) (domain or fragment)
binding: no binding (tested: 700 to 800 μM injected into 50 μM)
